The target of the assay is T1, BtuCD, endogenous in E. coli BW25113 membranes (E. coli (endogenous in BW25113)) (UniProt P06609+P06611).
T1 sequence 1: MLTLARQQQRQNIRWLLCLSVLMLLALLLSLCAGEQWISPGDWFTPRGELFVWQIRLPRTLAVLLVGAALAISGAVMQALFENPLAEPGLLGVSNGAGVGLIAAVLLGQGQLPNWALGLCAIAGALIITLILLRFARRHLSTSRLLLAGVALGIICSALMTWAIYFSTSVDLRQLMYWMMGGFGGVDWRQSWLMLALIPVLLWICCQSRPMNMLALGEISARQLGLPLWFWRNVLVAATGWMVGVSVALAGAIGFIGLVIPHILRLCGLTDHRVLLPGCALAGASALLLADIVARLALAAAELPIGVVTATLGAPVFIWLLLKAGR
T1 sequence 2: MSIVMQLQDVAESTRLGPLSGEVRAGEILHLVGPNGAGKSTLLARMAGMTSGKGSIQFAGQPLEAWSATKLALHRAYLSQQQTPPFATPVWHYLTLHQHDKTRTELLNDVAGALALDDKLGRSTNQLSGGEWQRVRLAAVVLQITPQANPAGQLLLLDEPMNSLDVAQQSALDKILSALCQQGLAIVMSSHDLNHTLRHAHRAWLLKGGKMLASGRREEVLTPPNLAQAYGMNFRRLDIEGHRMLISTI
Put plainly: co-sedimentation.

These are yes or no findings as the source states them, for the method shown. Binding seen in cells or lysates may run through a third protein. Some binding calls cover weakened binding; strength is not graded here.

B1: BtuF, endogenous in E. coli BW25113 (protein, UniProt P37028 23-266)
chain: APRVITLSPANTELAFAAGITPVGVSSYSDYPPQAQKIEQVSTWQGMNLERIVALKPDLVIAWRGGNAERQVDQLASLGIKVMWVDATSIEQIANALRQLAPWSPQPDKAEQAAQSLLDQYAQLKAQYADKPKKRVFLQFGINPPFTSGKESIQNQVLEVCGGENIFKDSRVPWPQVSREQVLARSPQAIVITGGPDQIPKIKQYWGEQLKIPVIPLTSDWFERASPRIILAAQQLCNALSQVD
In the case of B1, the binding entry is “binds”.

(Values after publication doi:10.1101/2025.02.23.639702.)
